Values joined by “and” are separate entries in the source; they are usually repeats but may differ in a detail not shown here. Equal entries are not always repeated. Further values from the same series stand in other lists.
System: macrophage phagosomal [Cl−] in BMDMs
Test: Phagosomal maturation assay, BAC/AF594 beads (Cl− readout)
Type: cell-based, mouse
Method: Carboxyfluorescein (pH readout), DQ-BSA/Alexa Fluor 594 (AF594) (proteolysis readout), and BAC/AF594 (Cl^− readout) beads were generated essentially as previously described, except that 10,10′-Bis[3-carboxylpropyl]-9,9′-biacridinium dinitrate di-NHS ester (BAC-SE) was purchased from emp Biotech LLC. BMDMs were isolated from C57BL/6J mice (The Jackson Laboratory) and maintained as described above. […] Assay buffer consisted of PBS (pH 7.2), supplemented with 5% FBS, 5 mM dextrose, 1 mM CaCl2, 2.7 mM KCl, and 0.5 mM MgCl2 in the case of assays with the carboxyfluorescein or DQ-BSA/AF594 beads. For assays with the BAC/AF594 beads, assay buffer consisted of PBS (pH 7.2), supplemented with 5% FBS, 5 mM dextrose, 1 mM calcium acetate, 1.35 mM K2SO4, and 0.5 mM MgSO4 [9]. Sensor beads at approximately 2 to 5 beads/macrophage in appropriate assay buffer were finally added, with data acquisition on a Biotek Synergy H1 microplate reader with bottom read signal detection started within 2 to 3 minutes of bead addition. Excitation/emission wavelengths were 450 nm/520 nm and 490 nm/520 nm for carboxyfluorescein, 490 nm/520 nm for DQ-BSA, 365 nm/505 nm for BAC, and 590 nm/617 nm for AF594. Each experiment was run with a total of 3 to 5 replicate wells/condition, with temperature maintained at 37°C throughout the assay. Wells were read every 2 minutes for 2 hours for the carboxyfluorescein bead assays, every 2 minoutes for 4 hours for the DQ-BSA/AF594 bead assays, and every 1 minute for 2 hours for the BAC/AF594 bead assays. Analyses of the results were performed as previously described.

Question: `CCSc1ncc(CN2CCN(c3nc4ccccc4o3)CC2)cn1` [C6, 2-(4-((2-(ethylthio)pyrimidin-5-yl)methyl)piperazin-1-yl)benzo[d]oxazole] was tested. Which “AF594/BAC fluorescence, replicates” value (Time 20 minutes) did it give?
Answer: The value was 0.6088 and 0.64 and 0.5989 and 0.6216.

Question: And the “AF594/BAC fluorescence, replicates” value (Time 21 minutes)?
Answer: Its value is 0.6189 and 0.6273 and 0.6415 and 0.5949 and 0.6136.

Question: And the “AF594/BAC fluorescence, replicates” value (Time 22 minutes)?
Answer: Its value is 0.6028 and 0.6109 and 0.6538 and 0.6008 and 0.6285.

Question: What about the “AF594/BAC fluorescence, replicates” value (Time 23 minutes) of the same compound?
Answer: Its value is 0.5942 and 0.6218 and 0.6389 and 0.6135 and 0.6215.

Question: What about the “AF594/BAC fluorescence, replicates” value (Time 24 minutes) of the same compound?
Answer: Its value is 0.6352 and 0.6194 and 0.6515 and 0.6198 and 0.6401.

Question: And the “AF594/BAC fluorescence, replicates” value (Time 25 minutes)?
Answer: The value was 0.6147 and 0.6096 and 0.6494 and 0.5986 and 0.642.

Question: And the “AF594/BAC fluorescence, replicates” value (Time 26 minutes)?
Answer: Its value is 0.6159 and 0.6483 and 0.6554 and 0.6055 and 0.6301.

Question: What about the “AF594/BAC fluorescence, replicates” value (Time 27 minutes) of the same compound?
Answer: Its value is 0.6061 and 0.6359 and 0.6514 and 0.6041 and 0.6221.

Question: What about the “AF594/BAC fluorescence, replicates” value (Time 28 minutes) of the same compound?
Answer: Its value is 0.6371 and 0.6305 and 0.6466 and 0.6288 and 0.6471.

Question: What about the “AF594/BAC fluorescence, replicates” value (Time 29 minutes) of the same compound?
Answer: Its value is 0.6665 and 0.642 and 0.6575 and 0.6119 and 0.6485.

Question: And the “AF594/BAC fluorescence, replicates” value (Time 30 minutes)?
Answer: The value was 0.6196 and 0.6438 and 0.6647 and 0.5987 and 0.6421.

Question: And the “AF594/BAC fluorescence, replicates” value (Time 31 minutes)?
Answer: The value was 0.6188 (2×) and 0.6383 and 0.6363 and 0.6442.

Question: And the “AF594/BAC fluorescence, replicates” value (Time 32 minutes)?
Answer: Its value is 0.6271 and 0.6428 and 0.6703 and 0.6113 and 0.6394.

Question: What about the “AF594/BAC fluorescence, replicates” value (Time 33 minutes) of the same compound?
Answer: The value was 0.6323 and 0.6506 and 0.68 and 0.6106 and 0.6675.

Question: What about the “AF594/BAC fluorescence, replicates” value (Time 34 minutes) of the same compound?
Answer: Its value is 0.6405 and 0.6553 (3×) and 0.638.

Question: What about the “AF594/BAC fluorescence, replicates” value (Time 35 minutes) of the same compound?
Answer: Its value is 0.6125 and 0.6563 and 0.6594 and 0.6063 and 0.6614.

Question: What about the “AF594/BAC fluorescence, replicates” value (Time 36 minutes) of the same compound?
Answer: The value was 0.6326 and 0.6542 and 0.68 and 0.6263 and 0.6609.

Question: And the “AF594/BAC fluorescence, replicates” value (Time 37 minutes)?
Answer: The value was 0.6414 and 0.6472 and 0.6487 and 0.6393 and 0.664.

Question: What about the “AF594/BAC fluorescence, replicates” value (Time 38 minutes) of the same compound?
Answer: The value was 0.6675 and 0.6506 and 0.6576 and 0.6143 and 0.6698.

Question: And the “AF594/BAC fluorescence, replicates” value (Time 39 minutes)?
Answer: Its value is 0.635 and 0.649 and 0.651 and 0.6353 and 0.6387.

Question: What about the “AF594/BAC fluorescence, replicates” value (Time 40 minutes) of the same compound?
Answer: The value was 0.6519 and 0.6497 and 0.6598 and 0.6333 and 0.6591.

Question: And the “AF594/BAC fluorescence, replicates” value (Time 41 minutes)?
Answer: Its value is 0.6481 and 0.6488 and 0.6778 and 0.6436 and 0.6477.

Question: What about the “AF594/BAC fluorescence, replicates” value (Time 42 minutes) of the same compound?
Answer: The value was 0.6322 and 0.657 and 0.6501 and 0.6432 and 0.6668.

Question: What about the “AF594/BAC fluorescence, replicates” value (Time 43 minutes) of the same compound?
Answer: The value was 0.6484 and 0.6312 and 0.6896 and 0.658 and 0.6347.

Question: And the “AF594/BAC fluorescence, replicates” value (Time 44 minutes)?
Answer: The value was 0.6128 and 0.6532 and 0.6729 and 0.646 and 0.6441.

Question: What about the “AF594/BAC fluorescence, replicates” value (Time 45 minutes) of the same compound?
Answer: Its value is 0.6459 and 0.6392 and 0.6647 and 0.6364 and 0.6426.

Question: What about the “AF594/BAC fluorescence, replicates” value (Time 47 minutes) of the same compound?
Answer: The value was 0.6406 and 0.6548 and 0.6738 and 0.646 and 0.6436.

Question: And the “AF594/BAC fluorescence, replicates” value (Time 49 minutes)?
Answer: The value was 0.6469 and 0.6323 and 0.649 and 0.6444 and 0.6786.

Question: What about the “AF594/BAC fluorescence, replicates” value (Time 51 minutes) of the same compound?
Answer: The value was 0.6427 and 0.6576 and 0.6543 and 0.6018 and 0.6494.

Question: And the “AF594/BAC fluorescence, replicates” value (Time 53 minutes)?
Answer: The value was 0.6356 and 0.6518 and 0.647 and 0.6274 and 0.6456.

Question: What about the “AF594/BAC fluorescence, replicates” value (Time 55 minutes) of the same compound?
Answer: Its value is 0.64 and 0.6439 and 0.6519 and 0.6434 and 0.6509.

Question: And the “AF594/BAC fluorescence, replicates” value (Time 57 minutes)?
Answer: The value was 0.6711 and 0.6509 and 0.6563 and 0.6483 and 0.6531.

Question: What about the “AF594/BAC fluorescence, replicates” value (Time 59 minutes) of the same compound?
Answer: Its value is 0.634 and 0.6589 and 0.6622 and 0.6255 and 0.6562.

Question: What about the “AF594/BAC fluorescence, replicates” value (Time 61 minutes) of the same compound?
Answer: The value was 0.6155 and 0.6354 and 0.6681 and 0.6259 and 0.6558.

Question: And the “AF594/BAC fluorescence, replicates” value (Time 63 minutes)?
Answer: Its value is 0.6372 and 0.6415 and 0.6498 and 0.6333 and 0.6527.

Question: What about the “AF594/BAC fluorescence, replicates” value (Time 65 minutes) of the same compound?
Answer: Its value is 0.6549 and 0.6388 and 0.6632 and 0.6431 and 0.6709.

Question: And the “AF594/BAC fluorescence, replicates” value (Time 67 minutes)?
Answer: The value was 0.6638 and 0.6522 and 0.667 and 0.6368 and 0.66.

Question: What about the “AF594/BAC fluorescence, replicates” value (time 46 minutes) of the same compound?
Answer: Its value is 0.6361 and 0.6528 and 0.6588 and 0.6111 and 0.6601.

Question: What about the “AF594/BAC fluorescence, replicates” value (time 48 minutes) of the same compound?
Answer: The value was 0.6342 and 0.6441 and 0.6594 and 0.6198 and 0.6542.

Question: What about the “AF594/BAC fluorescence, replicates” value (time 50 minutes) of the same compound?
Answer: Its value is 0.6279 and 0.6539 and 0.6768 and 0.6291 and 0.6258.

Question: What about the “AF594/BAC fluorescence, replicates” value (time 52 minutes) of the same compound?
Answer: Its value is 0.6309 and 0.6339 and 0.6597 and 0.6233 and 0.6708.

Question: What about the “AF594/BAC fluorescence, replicates” value (time 54 minutes) of the same compound?
Answer: Its value is 0.6454 and 0.6419 and 0.6866 and 0.6249 and 0.6685.

Question: And the “AF594/BAC fluorescence, replicates” value (time 56 minutes)?
Answer: The value was 0.6284 (2×) and 0.6467 and 0.6776 and 0.6667.

Question: What about the “AF594/BAC fluorescence, replicates” value (time 58 minutes) of the same compound?
Answer: Its value is 0.6298 and 0.6407 and 0.6825 and 0.6278 and 0.6807.

Source: paper PMC8351955, “Targeting Mycobacterium tuberculosis response to environmental cues for the development of effective antitubercular drugs” (PLoS Biology, 2021)
